Results are given in words; binding and its absence hold for the method and conditions named. In cells and extracts the contact can be indirect. Here binding means that the protein was enriched with, or labelled near, the bait; the list need not be complete. Sequences can lack the tags named with a protein.
Target: T1, HA-POU6F1 (pCMV-HA-POU6F1) (human) (UniProt Q14863)
T1 sequence: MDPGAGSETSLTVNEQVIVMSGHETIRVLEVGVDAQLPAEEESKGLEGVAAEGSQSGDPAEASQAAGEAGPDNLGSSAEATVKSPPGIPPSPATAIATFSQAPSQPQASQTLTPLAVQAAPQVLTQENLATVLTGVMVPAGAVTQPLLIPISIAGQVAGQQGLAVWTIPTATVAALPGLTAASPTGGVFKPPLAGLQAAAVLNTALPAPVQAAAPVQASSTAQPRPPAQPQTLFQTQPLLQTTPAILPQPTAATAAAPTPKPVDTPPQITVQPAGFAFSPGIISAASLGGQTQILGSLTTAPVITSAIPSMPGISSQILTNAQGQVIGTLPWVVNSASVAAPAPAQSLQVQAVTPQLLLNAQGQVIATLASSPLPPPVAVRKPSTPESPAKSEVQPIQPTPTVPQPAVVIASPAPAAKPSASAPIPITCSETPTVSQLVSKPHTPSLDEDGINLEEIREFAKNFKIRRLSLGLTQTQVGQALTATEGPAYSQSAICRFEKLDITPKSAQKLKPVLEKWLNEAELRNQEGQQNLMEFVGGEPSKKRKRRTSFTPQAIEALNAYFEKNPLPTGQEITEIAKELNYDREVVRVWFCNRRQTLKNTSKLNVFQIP
Assay: affinity purification with mass spectrometry; A549 and HEK293T cells transfected with pCMV-HA-POU6F1; extracts immunoprecipitated with HA antibody or IgG on protein A/G magnetic beads; MS analysis

B1: Retinoid-related orphan receptor alpha (RORA), endogenous (protein, UniProt P35398 1-523)
chain: MESAPAAPDPAASEPGSSGADAAAGSRETPLNQESARKSEPPAPVRRQSYSSTSRGISVTKKTHTSQIEIIPCKICGDKSSGIHYGVITCEGCKGFFRRSQQSNATYSCPRQKNCLIDRTSRNRCQHCRLQKCLAVGMSRDAVKFGRMSKKQRDSLYAEVQKHRMQQQQRDHQQQPGEAEPLTPTYNISANGLTELHDDLSNYIDGHTPEGSKADSAVSSFYLDIQPSPDQSGLDINGIKPEPICDYTPASGFFPYCSFTNGETSPTVSMAELEHLAQNISKSHLETCQYLREELQQITWQTFLQEEIENYQNKQREVMWQLCAIKITEAIQYVVEFAKRIDGFMELCQNDQIVLLKAGSLEVVFIRMCRAFDSQNNTVYFDGKYASPDVFKSLGCEDFISFVFEFGKSLCSMHLTEDEIALFSAFVLMSADRSWLQEKVKIEKLQQKIQLALQHVLQKNHREDGILTKLICKVSTLRALCGRHTEKLMAFKAIYPDIVRLHFPPLYKELFTSEFEPAMQIDG
How did the binding turn out when B1 was run?
Its binding is “binds”.
